In US20150126364A1, “1,3-DIARYL-SUBSTITUTED HETEROCYCLIC PESTICIDES” (E I DU PONT DE NEMOURS AND COMPANY, priority 2012, published 2015):
Some entries share one result that the patent states for a list of compounds. At least one compound was matched to its structure with a doubt left.

test system: potato leafhopper (Empoasca fabae); experiment: Test D: control of potato leafhopper on Soleil bean plant, contact and/or systemic; assay type: in vivo; conditions: sprayed at 50 ppm; 6 days; very good to excellent control
Procedure: Test compounds were formulated using a solution containing 10% acetone, 90% water and 300 ppm X-77® Spreader Lo-Foam Formula non-ionic surfactant containing alkylarylpolyoxyethylene, free fatty acids, glycols and isopropanol (Loveland Industries, Inc. Greeley, Colo., USA). The formulated compounds were applied in 1 mL of liquid through a SUJ2 atomizer nozzle with ⅛ JJ custom body (Spraying Systems Co., Wheaton, Ill., USA) positioned 1.27 cm (0.5 inches) above the top of each test unit. Test compounds were sprayed at 250 ppm and/or 50 ppm, and replicated three times. After spraying of the formulated test compound, each test unit was allowed to dry for 1 h and then a black, screened cap was placed on top. The test units were held for 6 days in a growth chamber at 25° C. and 70% relative humidity. Plant feeding damage was then visually assessed based on foliage consumed.
For evaluating control of potato leafhopper (Empoasca fabae) through contact and/or systemic means, the test unit consisted of a small open container with a 5-6-day-old Soleil bean plant (primary leaves emerged) inside. White sand was added to the top of the soil and one of the primary leaves was excised prior to application.
Test compounds were formulated and sprayed at 250 ppm and/or 50 ppm, and the tests were replicated three times as described for Test A. After spraying, the test units were allowed to dry for 1 h before they were post-infested with 5 potato leafhoppers (18-21-day-old adults). A black, screened cap was placed on the top of each test unit, and the test units were held for 6 days in a growth chamber at 24° C. and 70% relative humidity. Each test unit was then visually assessed for insect mortality.

| SMILES | control efficacy: mortality [%] |
| --- | --- |
| CC(=O)NC1CCN(Cc2cc(-c3cccc(C(F)(F)F)c3)nn2-c2ccc(F)cc2)CC1 [Compound 12] | ≥ 80 |
| CC(=O)NC1CCN(Cc2cc(-c3cccc(C(F)(F)F)c3)nn2-c2ccccc2F)CC1 [Compound 14] | ≥ 80 |
| COC(=O)C1CCN(Cc2cc(-c3ccc(F)c(Cl)c3)nn2-c2ccc(F)cc2)CC1 [Compound 24] | ≥ 80 |
| N#CC1CCN(Cc2[nH]c(-c3cccc(C(F)(F)F)c3)nc2-c2ccc(F)cc2F)CC1 [Compound 36] | ≥ 80 |
| COC(=O)C1CCN(Cc2[nH]c(-c3cccc(C(F)(F)F)c3)nc2-c2ccc(F)cc2F)CC1 [Compound 37] | ≥ 80 |
| CC(=O)NC1CCN(Cc2oc(-c3ccc(Cl)cc3)nc2-c2ccc(F)cc2)CC1 [Compound 68] | ≥ 80 |
| N#CC1CCN(Cc2[nH]c(-c3ccc(Cl)cc3)nc2-c2c(F)cc(F)cc2F)CC1 [Compound 75] | ≥ 80 |
| N#CC1CCN(Cc2[nH]c(-c3ccc(F)c(F)c3)nc2-c2ccc(F)cc2F)CC1 [Compound 82] | ≥ 80 |
| N#CC1CCN(Cc2[nH]c(-c3ccc(Cl)s3)nc2-c2ccc(F)cc2F)CC1 [Compound 89] | ≥ 80 |
| COC(=O)C1CCN(Cc2nn(-c3cccc(C(F)(F)F)c3)nc2-c2ccc(F)cc2F)CC1 [Compound 108] | ≥ 80 |
| CC(=O)NC1CCN(Cc2nn(-c3cccc(OC(F)(F)F)c3)nc2-c2ccc(F)cc2F)CC1 [Compound 118] | ≥ 80 |
| CC(=O)NC1CCN(Cc2nn(-c3cc(C(F)(F)F)ccn3)nc2-c2ccc(F)cc2F)CC1 [Compound 124] | ≥ 80 |
| CC(=O)NC1CCN(Cc2nn(-c3ccc(C(F)(F)F)cn3)nc2-c2ccc(F)cc2F)CC1 [Compound 125] | ≥ 80 |
| CC(=O)NC1CCN(Cc2nn(-c3ccc(Br)cn3)nc2-c2ccc(F)cc2F)CC1 [Compound 132] | ≥ 80 |
| CC(=O)NC1CCN(Cc2nn(-c3ccnc(C(F)(F)F)n3)nc2-c2ccc(F)cc2F)CC1 [Compound 134] | ≥ 80 |
| CC(=O)N[C@@H]1CCN(Cc2nn(-c3cc(C(F)(F)F)ccn3)nc2-c2ccc(F)cc2F)C1 [Compound 141] | ≥ 80 |

same assay, conditions: sprayed at 250 ppm; 6 days; very good to excellent control

| SMILES | control efficacy: mortality [%] |
| --- | --- |
| CC(=O)NC1CCN(Cc2cc(-c3cccc(C(F)(F)F)c3)nn2-c2ccc(F)cc2)CC1 [Compound 12] | ≥ 80 |
| CC(=O)NC1CCN(Cc2cc(-c3cccc(C(F)(F)F)c3)nn2-c2ccccc2F)CC1 [Compound 14] | ≥ 80 |
| COC(=O)C1CCN(Cc2cc(-c3cccc(C(F)(F)F)c3)nn2-c2ccccc2F)CC1 [Compound 16] | ≥ 80 |
| CCOC(=O)C1CCN(Cc2cc(-c3cccc(C(F)(F)F)c3)nn2-c2ccccc2F)CC1 [Compound 17] | ≥ 80 |
| COC(=O)C1CCN(Cc2cc(-c3cccc(C(F)(F)F)c3)nn2-c2ccc(Cl)cc2)CC1 [Compound 20] | ≥ 80 |
| COC(=O)C1CCN(Cc2cc(-c3ccc(F)c(Cl)c3)nn2-c2ccc(F)cc2)CC1 [Compound 24] | ≥ 80 |
| COC(=O)C1CCN(Cc2[nH]c(-c3cccc(C(F)(F)F)c3)nc2-c2ccc(F)cc2F)CC1 [Compound 37] | ≥ 80 |
| Cn1c(-c2cccc(C(F)(F)F)c2)nc(-c2ccc(F)cc2F)c1CN1CCC(C#N)CC1 [Compound 38] | ≥ 80 |
| CC(=O)NC1CCN(Cc2oc(-c3ccc(Cl)cc3)nc2-c2ccc(F)cc2)CC1 [Compound 68] | ≥ 80 |
| CC(=O)NC1CCN(Cc2[nH]c(-c3ccc(Cl)cc3)nc2-c2ccc(F)cc2F)CC1 [Compound 74] | ≥ 80 |
| N#CC1CCN(Cc2[nH]c(-c3ccc(Cl)cc3)nc2-c2c(F)cc(F)cc2F)CC1 [Compound 75] | ≥ 80 |
| CC(=O)NC1CCN(Cc2[nH]c(-c3ccc(Cl)cc3)nc2-c2c(F)cc(F)cc2F)CC1 [Compound 76] | ≥ 80 |
| N#CC1CCN(Cc2[nH]c(-c3cccc(C(F)(F)F)c3)nc2-c2c(F)cc(F)cc2F)CC1 [Compound 78] | ≥ 80 |
| N#CC1CCN(Cc2[nH]c(-c3ccc(F)c(F)c3)nc2-c2ccc(F)cc2F)CC1 [Compound 82] | ≥ 80 |
| N#CC1CCN(Cc2[nH]c(-c3cc(F)cc(F)c3)nc2-c2ccc(F)cc2F)CC1 [Compound 83] | ≥ 80 |
| N#CC1CCN(Cc2[nH]c(-c3ccc(Cl)s3)nc2-c2ccc(F)cc2F)CC1 [Compound 89] | ≥ 80 |
| COC(=O)C1CCN(Cc2nn(-c3ccc(F)c(Cl)c3)nc2-c2ccccc2F)CC1 [Compound 101] | ≥ 80 |
| N#CC1CCN(Cc2nn(-c3ccc(C(F)(F)F)cc3)nc2-c2ccc(F)cc2F)CC1 [Compound 103] | ≥ 80 |
| COC(=O)C1CCN(Cc2nn(-c3cccc(C(F)(F)F)c3)nc2-c2ccc(F)cc2F)CC1 [Compound 108] | ≥ 80 |
| COC(=O)C1CCN(Cc2nn(-c3ccc(F)c(Cl)c3)nc2-c2ccc(F)cc2F)CC1 [Compound 115] | ≥ 80 |
| CC(=O)NC1CCN(Cc2nn(-c3cccc(OC(F)(F)F)c3)nc2-c2ccc(F)cc2F)CC1 [Compound 118] | ≥ 80 |

test system: diamondback moth (Plutella xylostella); experiment: Test A: control of diamondback moth on radish plant, foliar spray; assay type: in vivo; conditions: sprayed at 50 ppm; 6 days; very good to excellent control

| SMILES | control efficacy: feeding damage (40% or less feeding damage and/or 100% mortality) [%] |
| --- | --- |
| N#CC1CCN(Cc2cc(-c3cccc(C(F)(F)F)c3)nn2-c2ccc(F)cc2)CC1 [Compound 2] | ≤ 40 |
| COC(=O)C1CCN(Cc2cc(-c3ccc(C)cc3)nn2-c2ccc(F)cc2)CC1 [Compound 4] | ≤ 40 |
| COC(=O)C1CCN(Cc2cc(-c3ccc(Cl)cc3)nn2-c2ccc(F)cc2)CC1 [Compound 7] | ≤ 40 |
| COC(=O)C1CCN(Cc2cc(-c3ccc(F)cc3F)nn2-c2ccc(F)cc2)CC1 [Compound 8] | ≤ 40 |
| CCOC(=O)C1CCN(Cc2cc(-c3ccc(Cl)cc3)nn2-c2ccc(F)cc2)CC1 [Compound 10] | ≤ 40 |
| CCOC(=O)C1CCN(Cc2cc(-c3cccc(C(F)(F)F)c3)nn2-c2ccc(F)cc2)CC1 [Compound 11] | ≤ 40 |
| CC(=O)NC1CCN(Cc2cc(-c3cccc(C(F)(F)F)c3)nn2-c2ccc(F)cc2)CC1 [Compound 12] | ≤ 40 |
| CC(=O)NC1CCN(Cc2cc(-c3ccc(Cl)cc3)nn2-c2ccc(F)cc2)CC1 [Compound 13] | ≤ 40 |
| CC(=O)NC1CCN(Cc2cc(-c3cccc(C(F)(F)F)c3)nn2-c2ccccc2F)CC1 [Compound 14] | ≤ 40 |
| N#CC1CCN(Cc2cc(-c3cccc(C(F)(F)F)c3)nn2-c2ccccc2F)CC1 [Compound 15] | ≤ 40 |
| COC(=O)C1CCN(Cc2cc(-c3cccc(C(F)(F)F)c3)nn2-c2ccccc2F)CC1 [Compound 16] | ≤ 40 |
| CCOC(=O)C1CCN(Cc2cc(-c3cccc(C(F)(F)F)c3)nn2-c2ccccc2F)CC1 [Compound 17] | ≤ 40 |
| CC(=O)NC1CCN(Cc2cc(-c3cccc(C(F)(F)F)c3)nn2-c2ccc(Cl)cc2)CC1 [Compound 18] | ≤ 40 |
| COC(=O)C1CCN(Cc2cc(-c3cccc(C(F)(F)F)c3)nn2-c2ccc(Cl)cc2)CC1 [Compound 20] | ≤ 40 |
| COC(=O)C1CCN(Cc2cc(-c3ccc(F)c(Cl)c3)nn2-c2ccc(F)cc2)CC1 [Compound 24] | ≤ 40 |
| CCOC(=O)C1CCN(Cc2cc(-c3ccc(F)c(Cl)c3)nn2-c2ccc(F)cc2)CC1 [Compound 25] | ≤ 40 |
| COC(=O)C1CCCN(Cc2cc(-c3cccc(C(F)(F)F)c3)nn2-c2ccc(F)cc2)C1 (stereo not drawn) [Compound 31] | ≤ 40 |
| N#CC1CCN(Cc2[nH]c(-c3cccc(C(F)(F)F)c3)nc2-c2ccc(F)cc2F)CC1 [Compound 36] | ≤ 40 |
| COC(=O)C1CCN(Cc2[nH]c(-c3cccc(C(F)(F)F)c3)nc2-c2ccc(F)cc2F)CC1 [Compound 37] | ≤ 40 |

| SMILES | control efficacy: feeding damage (40% or less feeding damage and/or 100% mortality) [%] |
| --- | --- |
| Cn1c(-c2cccc(C(F)(F)F)c2)nc(-c2ccc(F)cc2F)c1CN1CCC(C#N)CC1 [Compound 38] | ≤ 40 |
| Cn1c(-c2cccc(C(F)(F)F)c2)nc(CN2CCC(C#N)CC2)c1-c1ccc(F)cc1F [Compound 42] | ≤ 40 |
| N#CC1CCN(Cc2[nH]c(-c3ccc(Cl)cc3)nc2-c2c(F)cc(F)cc2F)CC1 [Compound 75] | ≤ 40 |
| N#CC1CCN(Cc2[nH]c(-c3cccc(C(F)(F)F)c3)nc2-c2c(F)cc(F)cc2F)CC1 [Compound 78] | ≤ 40 |
| N#CC1CCN(Cc2[nH]c(-c3cccc(F)c3F)nc2-c2ccc(F)cc2F)CC1 [Compound 80] | ≤ 40 |
| N#CC1CCN(Cc2[nH]c(-c3ccc(F)c(F)c3)nc2-c2ccc(F)cc2F)CC1 [Compound 82] | ≤ 40 |
| N#CC1CCN(Cc2[nH]c(-c3cc(F)cc(F)c3)nc2-c2ccc(F)cc2F)CC1 [Compound 83] | ≤ 40 |
| N#CC1CCN(Cc2[nH]c(-c3cccc([N+](=O)[O-])c3)nc2-c2ccc(F)cc2F)CC1 [Compound 87] | ≤ 40 |
| N#CC1CCN(Cc2[nH]c(-c3ccc(Cl)s3)nc2-c2ccc(F)cc2F)CC1 [Compound 89] | ≤ 40 |
| COC(=O)C1CCN(Cc2nn(-c3ccc(F)c(Cl)c3)nc2-c2ccccc2F)CC1 [Compound 101] | ≤ 40 |
| N#CC1CCN(Cc2nn(-c3ccc(F)c(Cl)c3)nc2-c2ccccc2F)CC1 [Compound 102] | ≤ 40 |
| N#CC1CCN(Cc2nn(-c3ccc(C(F)(F)F)cc3)nc2-c2ccc(F)cc2F)CC1 [Compound 103] | ≤ 40 |
| N#CC1CCN(Cc2nn(-c3ccc(Cl)cc3)nc2-c2ccc(F)cc2F)CC1 [Compound 107] | ≤ 40 |
| COC(=O)C1CCN(Cc2nn(-c3cccc(C(F)(F)F)c3)nc2-c2ccc(F)cc2F)CC1 [Compound 108] | ≤ 40 |
| N#CC1CCN(Cc2nn(-c3cccc(C(F)(F)F)c3)nc2-c2ccc(F)cc2F)CC1 [Compound 111] | ≤ 40 |
| COC(=O)C1CCN(Cc2nn(-c3ccc(F)c(Cl)c3)nc2-c2ccc(F)cc2F)CC1 [Compound 115] | ≤ 40 |
| N#CC1CCN(Cc2nn(-c3ccc(F)c(Cl)c3)nc2-c2ccc(F)cc2F)CC1 [Compound 116] | ≤ 40 |
| CC(=O)NC1CCN(Cc2nn(-c3cccc(OC(F)(F)F)c3)nc2-c2ccc(F)cc2F)CC1 [Compound 118] | ≤ 40 |
| N#CC1CCN(Cc2nn(-c3ccc(F)c(Cl)c3)nc2-c2c(F)cc(F)cc2F)CC1 [Compound 120] | ≤ 40 |

same assay, conditions: sprayed at 250 ppm; 6 days; very good to excellent control

| SMILES | control efficacy: feeding damage (40% or less feeding damage and/or 100% mortality) [%] |
| --- | --- |
| N#CC1CCN(Cc2cc(-c3cccc(C(F)(F)F)c3)nn2-c2ccc(F)cc2)CC1 [Compound 2] | ≤ 40 |
| COC(=O)C1CCN(Cc2cc(-c3ccc(C)cc3)nn2-c2ccc(F)cc2)CC1 [Compound 4] | ≤ 40 |
| COC(=O)C1CCN(Cc2cc(-c3ccc(Cl)cc3)nn2-c2ccc(F)cc2)CC1 [Compound 7] | ≤ 40 |
| COC(=O)C1CCN(Cc2cc(-c3ccc(F)cc3F)nn2-c2ccc(F)cc2)CC1 [Compound 8] | ≤ 40 |
| N#CC1CCN(Cc2cc(-c3ccc(F)cc3F)nn2-c2ccc(F)cc2)CC1 [Compound 9] | ≤ 40 |
| CCOC(=O)C1CCCN(Cc2cc(-c3ccc(Cl)cc3)nn2-c2ccc(F)cc2)C1 (stereo not drawn) [Compound 35] | ≤ 40 |
